Experimental data published in PubChem BioAssay AID504444 (National Center for Advancing Translational Sciences (NCATS), 2011).
Several values for one entry are separate records, joined by “and”; a condition that tells them apart may be missing. Equal values may be shown once. Out of some 360,000 compounds screened, about 7,500 (2.1%) were called active. The shares of active, inactive and inconclusive entries below differ from those in the screen. Calls come from the whole dose curve; as a rule, active = well fitted inhibition curve with a large enough effect; inconclusive = small, poorly fitted or top-dose-only effect, or effect the other way; inactive = flat fitted curve, though single readings scatter. Potencies beside an inconclusive call are fits to weak or partial responses and may not hold up.

experiment: Nrf2 qHTS screen for inhibitors; settings: A549 ARE-Fluc reporter, luciferase luminescence, 18-24 h; activity change, negative = inhibition: at 46 µM (top of the series); note: nearly all actives have a fitted effect of over 60% in size
Procedure, shortened: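 Concentration-response testing used A549 ARE_Fluc cells at 5000 cells/well. Following an 18-24 h compound incubation, viability was read by fluorescence (Ex 405/Em 525) and luciferase output by luminescence.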
% is set by controls: 0 for no effect and ±100 for the full control effect; potency is the fitted concentration of half-maximal effect.

| SMILES | activity change, negative = inhibition | Potency |
| --- | --- | --- |
| O=C(c1ccc(F)cc1)c1cc2ccc(O)cc2oc1=O | inactive: -8.52% |  |
| Cc1ccccc1NC(=S)N1CCN(c2ccccc2Cl)CC1 |  | inconclusive: 20.6 µM [falling, partial curve, poor fit] |
| C=CCNC(=O)c1ccc2nc(-c3ccco3)c(-c3ccco3)nc2c1 | inactive: -0.251% |  |
| CCc1ccc(CNC(=O)c2c3c(nc4ccccc24)C(=O)N(C2CCCCC2)C3)cc1 |  | inconclusive: 29.1 µM [falling, single point] |
| Cn1c(=O)c2c(nc(N/N=C/c3ccc(OC(=O)c4ccco4)cc3)n2Cc2ccc(F)cc2)n(C)c1=O |  | inconclusive: 32.6 µM [falling, single point] |
| CCOC(=O)c1ccc(N2C(=O)c3[nH]nc(-c4ccc(C)cc4)c3C2c2ccc(O)c(OCC)c2)cc1 (stereo not drawn) |  | active: 20.6 µM |
| COc1cc2c(=O)c(C(=O)c3ccc(C)c(C)c3)cn(Cc3ccccc3F)c2cc1OC |  | inconclusive: 18.4 µM [falling, single point] |
| Nc1nc(-c2cccnc2)nn1C(=O)Cc1ccccc1 |  | inconclusive: 9.2 µM [falling, partial curve, poor fit] |
| C#CCOc1ccc2c3c(c(=O)oc2c1)CCCC3 |  | inconclusive: 8.2 µM [falling, partial curve] |
| COc1ccc(-c2csc3ncnc(N4CCN(S(=O)(=O)c5ccc(C)cc5)CC4)c23)cc1 |  | inconclusive: 23.1 µM [falling, single point] |
| CCOc1ccc(C(C)NC(=O)c2ccc3c(c2)NC(=O)C(C)S3)cc1OCC (stereo not drawn) |  | inconclusive: 20.6 µM [falling, single point] |
| COCC1CCCN(C(=O)c2ccc3nc(Cc4cccc(Cl)c4)oc3c2)C1 (stereo not drawn) |  | inconclusive: 2.59 µM [activator, full curve] |
| Cc1ccccc1CN(CC(=O)Nc1cccc([N+](=O)[O-])c1)S(=O)(=O)c1ccc(Cl)cc1 |  | inconclusive: 29.1 µM [falling, single point] |
| COc1cccc(-c2nc(S(=O)(=O)c3ccccc3)c(N3CCCCC3)o2)c1 |  | inconclusive: 32.6 µM [falling, single point] |
| O=C(CCc1ccccc1)Nc1sc2c(c1C(=O)O)CCCC2 |  | inconclusive: 32.6 µM [falling, single point] |
| Cc1cccc(C(=O)CC(=O)c2cc(Cl)ccc2O)c1 |  | inconclusive: 16.4 µM [falling, single point] |
| O=C(c1ccc(F)cc1)c1cc2ccccc2o1 |  | inconclusive: 29.1 µM [activator, single point] |
| CC1C(=O)Nc2ccc(S(=O)(=O)N3CCN(c4cccc(C(F)(F)F)c4)CC3)cc2NC1=O (stereo not drawn) |  | active: 8.2 µM |
| Cc1oc2c(C)c3oc(=O)c(CCC(=O)NCCCN4CCCC4=O)c(C)c3cc2c1C |  | inconclusive: 29.1 µM [falling, partial curve, poor fit] |
| O=C(Nc1ccc(CSc2ccccc2)cc1)c1ccco1 |  | inconclusive: 20.6 µM [activator, partial curve] |
| CN(C(=O)CN1C(=O)c2ccccc2S1(=O)=O)C1CCCCC1 | inactive: -3% |  |

| SMILES | activity change, negative = inhibition | Potency |
| --- | --- | --- |
| COc1ccccc1NC(=O)CSc1nnc(-c2ccccc2C)o1 |  | inconclusive: 1.84 µM [activator, full curve] |
| CC(=O)N(CC(C)C(=O)O)c1c(I)cc(I)c(N)c1I (stereo not drawn) |  | inconclusive: 1.84 µM [falling, partial curve] |
| COc1cc(C(=O)N2CCN(c3cccc(C)c3C)CC2)ccc1OCC(=O)N1CCOCC1 |  | inconclusive: 13 µM [falling, partial curve, poor fit] |
| CNC[C@H](CC1CCCCC1)NC[C@H](Cc1ccccc1)NCCC12CC3CC(CC(C3)C1)C2 |  | inconclusive: 29.1 µM [falling, single point] |
| COc1cc(NC(=O)CCc2c(C)nn(-c3ccc(N4CCOCC4)nn3)c2C)cc(OC)c1OC |  | inconclusive: 29.1 µM [activator, single point] and inconclusive: 23.1 µM [activator, partial curve, poor fit] |
| COc1ccccc1NC(=O)CSc1nccc(-c2ccco2)n1 | inactive: -31.8% |  |
| CCn1cc(Br)c(C(=O)Nc2cccc(SC)c2)n1 |  | inconclusive: 29.1 µM [activator, single point] |
| COc1cc(C=O)ccc1OS(=O)(=O)c1ccccc1[N+](=O)[O-] | inactive: 7.86% |  |
| COCc1cc(=O)n2[nH]c(SCc3ccccc3)nc2n1 |  | inconclusive: 2.06 µM [activator, partial curve, poor fit] |
| CCOc1cccc(-c2c(C(=O)N/N=C/c3ccsc3)nnn2-c2nonc2N)c1 | inactive: -6.62% |  |
| Cc1cc(/C=C(\C#N)C(=O)Nc2ccccc2)c(C)n1-c1cccnc1 |  | inconclusive: 0.326 µM [activator, full curve, poor fit] |
| Brc1ccc(Cn2c(-c3cncs3)nc3ccccc32)cc1 | inactive: 4.69% |  |
| O=C(N/N=C/c1ccc(N2CCOCC2)cc1)c1ccccc1OCCOc1ccccc1 | inactive: -28.3% |  |
| CC(C)[C@@H](C(=O)N1CCN(Cc2ccc3c(c2)OCO3)CC1)n1nnc2ccccc2c1=O |  | inconclusive: 29.1 µM [falling, single point] |
| CC(=O)N1c2c(cc(Br)cc2S(=O)(=O)N2CCCCC2)CC1C (stereo not drawn) |  | inconclusive: 7.31 µM [activator, partial curve, poor fit] |
| CCOc1ccc(C(OC(=O)c2ccco2)C(=O)NCc2ccc(C)cc2)cc1 (stereo not drawn) |  | inconclusive: 5.8 µM [activator, full curve, poor fit] |
| CCN(CC)C(=O)[C@H]1CC(CC(=O)NCc2cccc(C(F)(F)F)c2)C(=O)N2CCc3c([nH]c4ccccc34)[C@]12C (stereo partly drawn) |  | inconclusive: 29.1 µM [falling, single point] |
| O=C1/C(=C/c2cccc([N+](=O)[O-])c2)CCc2ccccc21 | inactive: -8.68% |  |
| O=C(CSc1nnc(Nc2ccccc2)s1)Nc1cccc(S(=O)(=O)N2CCCCC2)c1 |  | inconclusive: 18.4 µM [falling, partial curve] |
| O=C(CCc1nc2ccccc2c(=O)[nH]1)NCCN1C(=O)S/C(=C\c2ccc(OC(F)F)cc2)C1=O |  | inconclusive: 23.1 µM [falling, partial curve, poor fit] |
| CCCCC1C2=C(CCCC2=O)OC2=C1C(=O)CCC2 |  | inconclusive: 29.1 µM [falling, single point] |

Rewritten comma-delimited: entries from further up
SMILES,"activity change, negative = inhibition",Potency
COc1ccccc1NC(=O)CSc1nccc(-c2ccco2)n1,inactive: -31.8%,
COCc1cc(=O)n2[nH]c(SCc3ccccc3)nc2n1,,"inconclusive: 2.06 µM [activator, partial curve, poor fit]"
CCOc1ccc(C(OC(=O)c2ccco2)C(=O)NCc2ccc(C)cc2)cc1 (stereo not drawn),,"inconclusive: 5.8 µM [activator, full curve, poor fit]"

Further results:

| SMILES | activity change, negative = inhibition | Potency |
| --- | --- | --- |
| CC1=C(C(=O)OCc2ccc(C)cc2)C(c2ccccc2F)CC(=O)N1 (stereo not drawn) |  | inconclusive: 23.1 µM [falling, single point] |
| Cc1ccccc1NC(=O)N1C2CCCC1CC(NC(=O)C(C)(C)C)C2 (stereo not drawn) |  | inconclusive: 18.4 µM [activator, single point] |
| Cc1nc2cc(NC(=O)Nc3cccc4ccccc34)ccc2n1C |  | inconclusive: 1.03 µM [activator, full curve] |
| CCOc1ccc(-n2nc(CO)c(C(=O)NCC(C)O)n2)cc1 (stereo not drawn) |  | inconclusive: 13 µM [activator, partial curve, poor fit] |
| COc1ccc(OCCn2nnc3sc4c(c3c2=O)CCCC4)cc1 |  | inconclusive: 25.9 µM [activator, single point] |
| COc1ccc(S(=O)(=O)Nc2cccc(C(C)=O)c2)cc1Br |  | inconclusive: 10.3 µM [falling, partial curve] |
| COc1ccccc1NS(=O)(=O)c1cc(NC(=O)c2[nH]c(C)c(C(C)=O)c2C)ccc1N1CCOCC1 |  | inconclusive: 29.1 µM [falling, single point] |
| CCCCNC(=O)O[C@@H]1C[C@@H]2CCN3C(=O)CCC[C@H]([C@H]1CC)[C@H]23 | inactive: -11% |  |
| CC(C)(C)c1ccc(-c2nnc(N)s2)cc1 |  | inconclusive: 4.11 µM [activator, full curve, poor fit] |
| COc1ccc(C(=O)Nc2nnc(Cc3ccc(OC)c(OC)c3)s2)c(OC)c1 |  | inconclusive: 20.6 µM [falling, single point] |
| COC(=O)c1cc2sccc2n1CC(=O)Nc1cc(Cl)ccc1OC |  | inconclusive: 29.1 µM [falling, single point] |
| O=C(Nc1ccc2c(c1)CCC2)c1c(F)cccc1Cl |  | inconclusive: 9.2 µM [activator, partial curve] |
| Cc1ccc(-c2nc(CS(=O)CC(=O)NCCc3ccc(Cl)cc3)c(C)o2)cc1 (stereo not drawn) |  | inconclusive: 29.1 µM [falling, single point] |
| CC(C)n1nnnc1SCC(=O)Nc1ccc2c(c1)OCO2 |  | inconclusive: 13 µM [activator, partial curve] |
| CN=c1sc(C(=O)Nc2cccc(Cl)c2)cc(=O)n1C |  | inconclusive: 29.1 µM [falling, single point] |
| CC1(C)C(=O)Nc2ccccc2N1C(=O)COc1ncnc2ccccc12 |  | inconclusive: 29.1 µM [activator, single point] |
| Oc1ccc2ccccc2c1/C=C/c1ccc2c(Br)cc(Br)c(O)c2n1 | inactive: -35% |  |
| FC(F)(F)c1ccc(Nc2nnnc3ccccc23)cc1 |  | inconclusive: 1.46 µM [activator, full curve] |
| COc1ccc(N2Cc3ccc(OC)c(OC)c3C2=O)cc1 |  | inconclusive: 5.17 µM [activator, full curve, poor fit] |
| Cc1ccccc1NC(=O)C(=Cc1ccc(C(=O)O)cc1)C(=O)Nc1ccccc1C |  | inconclusive: 18.4 µM [falling, single point] |
| COc1cccc(OC)c1OCCOc1ccc(C(=O)c2ccccc2)cc1 |  | inconclusive: 25.9 µM [falling, partial curve, poor fit] |
